{"source": "PubChem BioAssay AID1259425 (University of Nebraska Medical Center, 2018)", "purpose": "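Seek colon cancer weak points whose silencing resembles KSR1 loss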 (primary screen)", "system": "HCT116 human colon cancer cells", "reagent": "siRNA pool against human genes, 50 nM siRNA", "detection": "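After 50 nM siRNA pool, branched-DNA assay measures six marker transcripts per well, minus blank, normalised to the geometric mean of two housekeeping transcripts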", "direction": "BNIP3L mRNA: higher = more BNIP3L transcript after knockdown; NDRG1 mRNA: higher = more NDRG1 transcript after knockdown", "note": "The deposit covers about 14,000 reagents; shown is a part drawn at random. Not all columns of the deposit are shown. Not given: the time to read-out."}
{"gene": "GID8", "BNIP3L mRNA, set 1": 0.0699, "NDRG1 mRNA, set 1": 0.132}
{"gene": "TNIP3", "BNIP3L mRNA, set 1": 0.12, "NDRG1 mRNA, set 1": 0.151}
{"gene": "SIDT2", "BNIP3L mRNA, set 1": 0.173, "NDRG1 mRNA, set 1": 0.176}
{"gene": "TNFRSF19", "BNIP3L mRNA, set 1": 0.113, "NDRG1 mRNA, set 1": 0.0885}
{"gene": "CDH3", "BNIP3L mRNA, set 1": 0.0967, "NDRG1 mRNA, set 1": 0.207}
{"gene": "ARMCX1", "BNIP3L mRNA, set 1": 0.129, "NDRG1 mRNA, set 1": 0.0587}
{"gene": "NUDT4", "BNIP3L mRNA, set 1": 0.141, "NDRG1 mRNA, set 1": 0.084}
{"gene": "ATP12A", "BNIP3L mRNA, set 1": 0.136, "NDRG1 mRNA, set 1": 0.11}
{"gene": "EXTL2", "BNIP3L mRNA, set 1": 0.0986, "NDRG1 mRNA, set 1": 0.108}

Continued (2 carried over from the part before).
{"gene": "ATP12A", "BNIP3L mRNA, set 1": 0.136, "NDRG1 mRNA, set 1": 0.11}
{"gene": "EXTL2", "BNIP3L mRNA, set 1": 0.0986, "NDRG1 mRNA, set 1": 0.108}
{"gene": "MEFV", "BNIP3L mRNA, set 1": 0.128, "NDRG1 mRNA, set 1": 0.117}
{"gene": "GNAL", "BNIP3L mRNA, set 1": 0.0602, "NDRG1 mRNA, set 1": 0.132}
{"gene": "NET1", "BNIP3L mRNA, set 1": 0.137, "NDRG1 mRNA, set 1": 0.118}
{"gene": "CRY2", "BNIP3L mRNA, set 1": 0.0349, "NDRG1 mRNA, set 1": 0.255}
{"gene": "NT5M", "BNIP3L mRNA, set 1": 0.131, "NDRG1 mRNA, set 1": 0.127}
{"gene": "ITGA10", "BNIP3L mRNA, set 1": 0.0736, "NDRG1 mRNA, set 1": 0.0976}
{"gene": "DLEU2", "BNIP3L mRNA, set 1": 0.258, "NDRG1 mRNA, set 1": 0.272}
{"gene": "SEMA4C", "BNIP3L mRNA, set 1": 0.096, "NDRG1 mRNA, set 1": 0.0886}
{"gene": "CBX8", "BNIP3L mRNA, set 1": 0.0599, "NDRG1 mRNA, set 1": 0.0358}
{"gene": "TGM1", "BNIP3L mRNA, set 1": 0.0815, "NDRG1 mRNA, set 1": 0.186}
